Values of other authors as cited in patent publication US6682920B1, “Compositions and methods for identifying PKB kinase inhibitors” (Onyx Pharmaceuticals, Inc., priority 1997, dated 2004).
At least one structure is not confirmed: it was looked up by name or label, or the drawing left a doubt.

Tested on: PKB
Settings: cells preincubated with inhibitor; cited from earlier work

Row | Structure (SMILES) | effect on activation of PKB by insulin or growth factors
1 | O=c1cc(N2CCOCC2)oc2c(-c3ccccc3)cccc12 [LY 294002] | prevented
2 | COC[C@H]1OC(=O)c2coc3c2[C@@]1(C)C1=C(C3=O)[C@@H]2CCC(=O)[C@@]2(C)C[C@H]1OC(C)=O [Wortmannin] | prevented
